Results are given in words; binding and its absence hold for the method and conditions named. In cells and extracts the contact can be indirect. Some binding calls cover weakened binding; strength is not graded here.

Sequences of proteins named here, by UniProt entry; tags and fusion partners are left off.
UniProt Q04206: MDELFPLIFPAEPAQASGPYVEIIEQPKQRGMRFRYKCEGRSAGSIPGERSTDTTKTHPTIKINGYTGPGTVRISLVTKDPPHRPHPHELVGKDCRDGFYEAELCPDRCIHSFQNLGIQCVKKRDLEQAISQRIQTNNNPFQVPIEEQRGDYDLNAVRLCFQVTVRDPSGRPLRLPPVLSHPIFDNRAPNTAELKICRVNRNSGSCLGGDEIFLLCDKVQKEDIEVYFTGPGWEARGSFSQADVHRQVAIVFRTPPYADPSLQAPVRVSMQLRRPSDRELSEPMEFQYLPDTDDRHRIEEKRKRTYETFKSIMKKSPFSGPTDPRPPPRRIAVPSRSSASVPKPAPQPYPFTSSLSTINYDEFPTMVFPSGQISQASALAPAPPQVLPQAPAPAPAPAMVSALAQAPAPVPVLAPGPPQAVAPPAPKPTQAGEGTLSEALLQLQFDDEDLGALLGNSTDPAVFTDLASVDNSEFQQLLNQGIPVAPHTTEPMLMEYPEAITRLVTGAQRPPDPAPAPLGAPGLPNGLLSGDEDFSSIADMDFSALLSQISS

This experiment addresses T1, vitamin D receptor (human (endogenous in ACHN)) (UniProt P11473).
T1 sequence: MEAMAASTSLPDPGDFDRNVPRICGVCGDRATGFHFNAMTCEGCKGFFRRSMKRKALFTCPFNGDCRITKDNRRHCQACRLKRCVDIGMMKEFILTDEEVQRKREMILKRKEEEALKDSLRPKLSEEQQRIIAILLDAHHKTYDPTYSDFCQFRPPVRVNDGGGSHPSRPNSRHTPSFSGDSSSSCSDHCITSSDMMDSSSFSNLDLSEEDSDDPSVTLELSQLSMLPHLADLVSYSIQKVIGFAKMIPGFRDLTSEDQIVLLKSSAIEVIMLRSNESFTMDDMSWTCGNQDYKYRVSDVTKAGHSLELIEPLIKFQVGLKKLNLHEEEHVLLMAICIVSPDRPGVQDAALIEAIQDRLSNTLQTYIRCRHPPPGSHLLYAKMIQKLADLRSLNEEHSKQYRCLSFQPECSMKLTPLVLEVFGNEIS
Briefly: co-IP; ACHN cells pretreated with 1,25(OH)2D3 for 24 h, then stimulated with LPS for 6 h; total lysate (1000 μg protein) precleared with protein A/G-agarose, precipitated with 2 μg anti-VDR antibody and protein A/G-agarose; immunoblots with VDR and NF-κB p65 antibodies. For orientation: A western blot detects proteins with antibodies after separation by electrophoresis.

Consider “NF-κB p65 subunit (from UniProt Q04206 1-551)”, for which the binding entry was “binds”.
